Laboratory results: article PMC7395175
Results are given in words; binding and its absence hold for the method and conditions named. In cells and extracts the contact can be indirect. Here binding means that the protein was enriched with, or labelled near, the bait; the list need not be complete. Blank lines part the entries; values can stand above or below the binder they belong to.

By UniProt entry, the sequences of proteins in these tests, tags left out.
UniProt Q8VDZ4: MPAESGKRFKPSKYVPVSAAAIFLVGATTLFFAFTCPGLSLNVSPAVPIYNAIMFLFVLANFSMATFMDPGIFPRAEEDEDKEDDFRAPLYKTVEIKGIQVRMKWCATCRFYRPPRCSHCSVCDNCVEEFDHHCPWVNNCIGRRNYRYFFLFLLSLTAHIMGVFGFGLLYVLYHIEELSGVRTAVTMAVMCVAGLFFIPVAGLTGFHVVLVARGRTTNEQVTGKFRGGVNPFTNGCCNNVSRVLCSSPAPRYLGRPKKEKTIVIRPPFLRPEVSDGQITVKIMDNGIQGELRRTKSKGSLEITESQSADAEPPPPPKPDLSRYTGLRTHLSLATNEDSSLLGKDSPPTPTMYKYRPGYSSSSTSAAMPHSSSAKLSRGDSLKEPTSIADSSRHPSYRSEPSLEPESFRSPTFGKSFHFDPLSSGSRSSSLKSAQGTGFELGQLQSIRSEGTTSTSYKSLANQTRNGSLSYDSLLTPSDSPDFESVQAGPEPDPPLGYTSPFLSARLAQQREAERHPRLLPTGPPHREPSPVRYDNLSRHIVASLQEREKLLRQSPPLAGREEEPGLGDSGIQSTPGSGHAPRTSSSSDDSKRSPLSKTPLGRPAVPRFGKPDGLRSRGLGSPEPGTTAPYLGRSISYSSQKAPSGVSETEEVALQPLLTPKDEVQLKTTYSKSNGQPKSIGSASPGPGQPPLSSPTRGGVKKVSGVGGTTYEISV

Tests used:
[1] = target: zDHHC5-BirA (BirA fused at the intracellular C terminus of zDHHC5) (UniProt Q8VDZ4); assay: proximity labelling; BirA fusions of zDHHC5 (or BirA alone) in HEK cells, 50 μM biotin overnight, streptavidin Sepharose, LC-MS/MS
[2] = target: BirA-zDHHC5 (BirA fused at the intracellular N terminus of zDHHC5) (UniProt Q8VDZ4); assay: as above
[3] = target: zDHHC5-BirA (BirA fused at the intracellular C terminus of zDHHC5) (UniProt Q8VDZ4); assay: proximity labelling; BirA-zDHHC5 and zDHHC5-BirA in the cardiomyoblast cell line H9c2, proximity biotinylation
[4] = target: BirA-zDHHC5 (BirA fused at the intracellular N terminus of zDHHC5) (UniProt Q8VDZ4); assay: as above

binding [1]: binds
binding [2]: binds
B1: zDHHC20 (endogenous, HEK cells) (enzyme, UniProt Q5W0Z9 1-365)
chain: MAPWTLWRCCQRVVGWVPVLFITFVVVWSYYAYVVELCVFTIFGNEENGKTVVYLVAFHLFFVMFVWSYWMTIFTSPASPSKEFYLSNSEKERYEKEFSQERQQEILRRAARALPIYTTSASKTIRYCEKCQLIKPDRAHHCSACDSCILKMDHHCPWVNNCVGFSNYKFFLLFLLYSLLYCLFVAATVLEYFIKFWTNELTDTRAKFHVLFLFFVSAMFFISVLSLFSYHCWLVGKNRTTIESFRAPTFSYGPDGNGFSLGCSKNWRQVFGDEKKYWLLPIFSSLGDGCSFPTRLVGMDPEQASVTNQNEYARSSGSNQPFPIKPLSESKNRLLDSESQWLENGAEEGIVKSGTNNHVTVAIEN

binding [3]: binds
binding [4]: binds
B2: O-GlcNAc transferase (OGT), endogenous, H9c2 cells (enzyme, UniProt P56558 1-1036)
chain: MASSVGNVADSTGLAELAHREYQAGDFEAAERHCMQLWRQEPDNTGVLLLLSSIHFQCRRLDRSAHFSTLAIKQNPLLAEAYSNLGNVYKERGQLQEAIEHYRHALRLKPDFIDGYINLAAALVAAGDMEGAVQAYVSALQYNPDLYCVRSDLGNLLKALGRLEEAKACYLKAIETQPNFAVAWSNLGCVFNAQGEIWLAIHHFEKAVTLDPNFLDAYINLGNVLKEARIFDRAVAAYLRALSLSPNHAVVHGNLACVYYEQGLIDLAIDTYRRAIELQPHFPDAYCNLANALKEKGSVAEAEDCYNTALRLCPTHADSLNNLANIKREQGNIEEAVRLYRKALEVFPEFAAAHSNLASVLQQQGKLQEALMHYKEAIRISPTFADAYSNMGNTLKEMQDVQGALQCYTRAIQINPAFADAHSNLASIHKDSGNIPEAIASYRTALKLKPDFPDAYCNLAHCLQIVCDWTDYDERMKKLVSIVAEQLEKNRLPSVHPHHSMLYPLSHGFRKAIAERHGNLCLDKINVLHKPPYEHPKDLKLSDGRLRVGYVSSDFGNHPTSHLMQSIPGMHNPDKFEVFCYALSPDDGTNFRVKVMAEANHFIDLSQIPCNGKAADRIHQDGIHILVNMNGYTKGARNELFALRPAPIQAMWLGYPGTSGALFMDYIITDQETSPAEVAEQYSEKLAYMPHTFFIGDHANMFPHLKKKAVIDFKSNGHIYDNRIVLNGIDLKAFLDSLPDVKIVKMKCPDGGDNADTTNTALNMPVIPMNTIAEAVIEMINRGQIQITINGFSISNGLATTQINNKAATGEEVPRTIIVTTRSQYGLPEDAIVYCNFNQLYKIDPSTLQMGANILKRVPNSVLWLLRFPAVGEPNIQQYAQNMGLPQNRIIFSPVAPKEEHVRRGQLADVCLDTPLCNGHTTGMDVLWAGTPMVTMPGETLASRVAASQLTCLGCLELIAKSRQEYEDIAVKLGTDLEYLKKIRGKVWKQRISSPLFNTKQYTMELERLYLQMWEHYAAGNKPDHMIKPVEVTESA
